# According to PubChem BioAssay AID2685 (National Center for Advancing Translational Sciences (NCATS), 2010):
# The other results are listed elsewhere or left out. Further columns of the screen follow, without active or inactive calls. The list favours compounds with an active or inconclusive main result. Words in brackets tell the shape of the fitted curve; partial curves, single points and poor fits give uncertain potencies.
# Assay: qHTS Assay for Lipid Storage Modulators in Drosophila S3 Cells;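 as to cell number change: cells counted by Cell Tracker Red CMTPX staining in the red channel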
# Settings: BODIPY lipid droplet fluorescence, 18-24 h; for cell number change: measured here: cell count max response, cells fed with added oleic acid
# Procedure, shortened: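 Drosophila S3 cells got compounds at several concentrations plus oleic acid (400 uM solution). Laser-scanning cytometry with 488 nm excitation read lipid droplets at 500-530 nm and cells at 575-640 nm. Percent activity was relative to 20 uM Triacsin C.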
# [1] = measured here: lipid fluorescence (Fed channel) AC50, cells fed with added oleic acid
# [2] = measured here: cell number channel AC50, cells fed with added oleic acid
SMILES,cell number change,AC50 [1],AC50 [2]
COc1cc(/C=C2\SC(=S)N(CCC(=O)Nc3ccc(O)cc3)C2=O)cc(OC)c1OC,-18%,,
COc1cc(N/N=C/c2ccccc2O)ncn1,-12.3%,"291 nM [falling, full curve, poor fit]",
COc1cccc(CNC(=S)Nc2cc(OC)ccc2OC)c1,-8.56%,,
Cc1cc(C)c(S(=O)(=O)NCC(c2ccc3c(c2)OCO3)N2CCOCC2)c(C)c1 (centres undefined),37.3%,,"20600 nM [rising, single point]"
O=C(NCCOc1nc(N2CCCCC2)nc(N2CCOCC2)n1)Nc1ccccc1,,"1640 nM [falling, partial curve]",
c1ccc(-n2nnc3ccccc32)cc1,4.67%,"29100 nM [rising, single point]",
O=C1/C(=C/N(C(=O)c2ccco2)c2ccc(Cl)cc2)Sc2ccccc21,-35.9%,,"14600 nM [falling, partial curve]"
COc1ccc(/C=N/OC/C(O)=C(\C#N)c2nc3ccccc3[nH]2)cc1OC,-6.9%,"2310 nM [rising, full curve, poor fit]",
CCn1ccnc1CN(C)C(=O)c1cc(COc2ccc(-n3cncn3)cc2)on1,9.16%,,
COc1ccc(CCNC(=O)c2ccc(CN3CCC(Cc4ccccc4)CC3)cc2)cc1OC,-2.04%,"29100 nM [rising, single point]",
O=C1N/C(=N\N=C\c2ccco2)SC1Cc1ccc(F)cc1 (centres undefined),,"6510 nM [falling, single point]","820 nM [falling, full curve, poor fit]"
CC(C)C(C(=O)NCc1ccco1)N(C(=O)CNS(=O)(=O)c1ccc(Cl)cc1)C1CCCC1 (centres undefined),-16.5%,"14600 nM [falling, partial curve, poor fit]",
CCOC(=O)n1c(=O)n(C)c2ccc(Br)cc21,5.7%,,"731 nM [falling, full curve]"
Cc1cccnc1NC(=O)c1ccc(C(=O)c2ccccc2)cc1,,"6510 nM [rising, single point]",
O=C(Nc1cccc(-c2nnn(CC(=O)N3CCc4ccccc4C3)n2)c1)C1CCC1,14.2%,"29100 nM [rising, single point]","58 nM [rising, full curve, poor fit]"
O=C(CNCc1ccccn1)N1CCc2ccccc2C1,-6.8%,,
CCN1CCCC(NC(=O)c2cc([N+](=O)[O-])ccc2OC)C1 (centres undefined),-65.5%,"29100 nM [falling, single point]","25900 nM [falling, partial curve, poor fit]"
CC12CCC(C(=O)NCCCN3CCOCC3)(C(Br)C1=O)C2(C)C (centres undefined),-9.82%,"7310 nM [falling, partial curve]",
O=C(O)/C=C/C(=O)OC1CC2CCC1C2 (centres undefined),-12.3%,,
COc1cc(NC(=O)CN2CCN(c3ccccc3O)CC2)c(C)cc1[N+](=O)[O-],-33.3%,"1640 nM [rising, single point]","651 nM [falling, full curve, poor fit]"

# Record cards, from the list above.
# CCn1ccnc1CN(C)C(=O)c1cc(COc2ccc(-n3cncn3)cc2)on1 as listed: cell number change: 9.16%
# CC(C)C(C(=O)NCc1ccco1)N(C(=O)CNS(=O)(=O)c1ccc(Cl)cc1)C1CCCC1 (centres undefined) as listed: cell number change: -16.5%; AC50 [1]: 14600 nM [falling, partial curve, poor fit]
# O=C(Nc1cccc(-c2nnn(CC(=O)N3CCc4ccccc4C3)n2)c1)C1CCC1 as listed: cell number change: 14.2%; AC50 [1]: 29100 nM [rising, single point]; AC50 [2]: 58 nM [rising, full curve, poor fit]

# The list goes on.

SMILES,cell number change,AC50 [1],AC50 [2]
COc1ccc(-c2noc(CCC(=O)N3CCN(c4cc(C)ccc4C)CC3)n2)cc1,-46.2%,"23100 nM [falling, single point]","29100 nM [falling, single point]"
COc1ccc(NC(=O)CN(C)C(=O)CSc2ccc(Br)cc2)cc1,6.8%,"206 nM [rising, full curve, poor fit]",
Cc1ccc(C2=NN(C(=O)CSc3nnnn3C)C(c3ccco3)C2)cc1 (centres undefined),-3.61%,"6510 nM [rising, single point]","6510 nM [rising, single point]"
CCOc1ccc(CCNC(=O)COC(=O)/C=C/c2ccc(OC)c(OC)c2)cc1OCC,-39.9%,"1030 nM [falling, full curve]","1300 nM [falling, full curve]"
COc1cccc(-c2cn3nc4c(nc3n2)CCCC4)c1,-13.5%,,
Cn1cnnc1SCC(C)(C)NS(=O)(=O)c1ccc(Cl)cc1,2.63%,,
COc1ccc(-c2nnc(SCC(=O)c3[nH]c(C)c(C(C)=O)c3C)o2)cc1,-20.8%,,
O=C(O)CC/C(=N\Nc1ccc(S(=O)(=O)N2CCCC2)cc1[N+](=O)[O-])c1cccs1,,"5.17 nM [falling, full curve, poor fit]",
COc1cc(Cn2nnc3ccccc32)cc(Br)c1O,12.6%,"2910 nM [rising, single point]",
CCOc1ccccc1-n1c(SCC(=O)NC2CCCC2)nnc1-c1ccoc1C,110%,"1640 nM [rising, full curve]","1840 nM [rising, full curve]"
CS(=O)(=O)c1ccc2nc(NC(=O)CCNC(=O)c3ccccc3Cl)sc2c1,1.29%,"580 nM [rising, single point]",
N#CC1(NC(=O)COc2cccnc2[N+](=O)[O-])CCCCC1,15.1%,"130 nM [falling, full curve, poor fit]","4610 nM [falling, single point]"
C/C=C/C(=O)N1CC2(CC(c3cccc(NC(=O)COc4ccc(Cl)cc4)c3)=NO2)C[C@@H]1C(N)=O (some centres undefined),-8.72%,"651 nM [rising, single point]",
CN1CCN(C(=O)c2ccccc2NC(=O)CCN2C(=O)c3ccccc3C2=O)CC1,-1.24%,"4.61 nM [falling, full curve, poor fit]",
COc1ccc(-c2cn3c(C)c(C(=O)NC(C)(C)C)sc3n2)cc1,-4.61%,,
CCOc1ccccc1NC(=O)CCS(=O)(=O)c1cccs1,13.1%,"6510 nM [rising, single point]",
O=C(COC(=O)c1ccccc1Br)Nc1ccccc1F,0.437%,,
CC(c1ccccc1)N(C)C(=O)CN1CCN(S(=O)(=O)c2ccc3c(c2)OCCCO3)CC1 (centres undefined),2.63%,"25900 nM [falling, partial curve, poor fit]",
COc1cccc(N2CCN(c3ncnc4c3cnn4-c3ccc(C)cc3C)CC2)c1,-31.8%,"1160 nM [rising, single point]","23100 nM [falling, single point]"
